By Papp is commonly meant a coefficient for how fast a substance crosses the barrier. Low readings indicate poor permeation, high ones ready permeation.

This data set in a line: in vitro. Conditions: human, Caco-2. As to the method:
Assay plates containing 12 wells of 21-day Caco-2 monolayers were provided by MB Biosciences. Monolayer integrity was verified using transepithelial electrical resistance measurements (TEER) prior to assay. Treatment solutions of AFB1, AFB2a, and AFB2a-Arg were prepared in the provided Hank's buffered salt solution (HBSS) with a pH of 7.4 and a final DMSO concentration of 0.2%. Caco-2 monolayers were first rinsed with HBSS and then the apical chamber was filled with 500 μL of test compound solution while the basal chamber was filled with 1500 μL of blank HBSS (both chambers were kept at pH 7.4). Plates were incubated at 37°C for 2 hours to allow compound equilibration. Compound concentration was measured at t = 0 hrs and t = 2 hours by HPLC-MS. Permeability (Papp) was calculated as follows: Papp=dQ/dt×1/A×C0
Where dQ/dt is the amount of translocated material over incubation time (nmol/s), A is the area of the insert (cm^2), and C0 is the initial concentration of the test compound applied. […] ER was calculated as follows: ER=Papp(Basal→Apical)/Papp(Apical→Basal)

The molecule `CC(C)NCC(O)COc1ccc(CC(N)=O)cc1` (stereo not shown) [atenolol, reference compound] gave an apparent permeability (Papp) of under 5 nm/s.
